PubChem BioAssay AID1259284 | Sanger Institute | 2017
Test: 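Kinase genes needed for growth or acting with cancer drugs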 (primary screen). System: SW48 human colorectal cancer cells. Reagent: siRNA pool against human genes. Treatment: anchor drug BYL719 at 1 µM, cetuximab at 5 µg/ml or trametinib at 10 nM, or DMSO vehicle alone. Detection: 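Viability scaled to non-targeting control pool, robust z-score from controls, and synergy scores for each drug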. Scale: robust z-score, no drug: higher = more cells survive knock-down; viability, no drug: higher = more viable cells; synergy with BYL719: higher = stronger combined killing with drug. Hit rule: 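Called essential when the robust z-score of viability without drug falls below -3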. Meaning of the calls: active = essential without drug; inactive = no change without drug.
This is one part, drawn at random, of 794 reagents. Of all reagents, 16 (2%) got an active call. 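Calls concern knock-down without drug only; drug synergy was judged apart, with scores above 0.15 taken as synergy.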 Entries without a mark were called inactive. No viability above 1 is reported: the scale is capped. Not all columns of the deposit are shown. Reagent sequences are not shown. Not given: the amount of reagent, the time to read-out.

no.	target	robust z-score, no drug	viability, no drug (fraction of control)	synergy with BYL719
1	CRKL	0.426	1	-0.291
2	ETNK1	0.426	1	-0.303
3	DAPK3	-0.703	0.903	0.18
4	CDK6	0.426	1	-0.211
5	BLK	0.426	1	-0.291
6	DDR2	0.426	1	-0.16
7	CSNK1G1	0.426	1	-0.281
8	MAP3K4	0.426	1	-0.161
9	GSK3A	0.426	1	-0.133
10	AXIN2	-0.137	0.952	-0.157
11	UHMK1	0.426	1	-0.2
12	WNK4	0.426	1	-0.367
13	SOS2	-0.364	0.932	-0.0412
14	PRKAG3	-2.28	0.768	-0.201
15	MASTL	-3.14 (active)	0.694	-0.121
16	TLK1	0.426	1	-0.0235
17	MED24	0.426	1	-0.004
18	AK1	0.426	1	-0.149
19	RPS6KL1	0.426	1	-0.242
20	VRK1	0.426	1	-0.21
21	LRRK1	0.426	1	-0.222
22	TBCK	0.426	1	-0.122
23	STK40	0.426	1	-0.088
24	STKLD1	0.426	1	-0.105
25	ULK2	0.426	1	-0.211
26	ROCK2	0.426	1	-0.122
27	MARK3	-0.624	0.91	-0.16
28	AMER1	0.426	1	-0.107
29	MAP2K5	0.426	1	-0.338
30	MAP2K1	0.426	1	-0.146
31	NR2F2	0.426	1	-0.144
32	ALPK2	0.426	1	-0.0958
33	AAK1	0.426	1	-0.27
34	PAK6	0.426	1	-0.289
